This assay addresses Ewing Sarcoma breakpoint region 1/EWS RNA binding protein 1 (EWSR1) (human (endogenous in NCM460)) (UniProt Q01844). In words: co-IP; lysate in IP buffer (50 mM Tris-HCl pH 7.4, 150 mM NaCl, 1% NP-40), anti-EWSR1 antibody or normal IgG overnight at 4°C, protein A/G magnetic beads, western blot; cells with or without overexpression of 5'-tiRNA-Lys.

Protein sequences, listed by entry. Tags and fused reporters are not part of them.
UniProt Q01844: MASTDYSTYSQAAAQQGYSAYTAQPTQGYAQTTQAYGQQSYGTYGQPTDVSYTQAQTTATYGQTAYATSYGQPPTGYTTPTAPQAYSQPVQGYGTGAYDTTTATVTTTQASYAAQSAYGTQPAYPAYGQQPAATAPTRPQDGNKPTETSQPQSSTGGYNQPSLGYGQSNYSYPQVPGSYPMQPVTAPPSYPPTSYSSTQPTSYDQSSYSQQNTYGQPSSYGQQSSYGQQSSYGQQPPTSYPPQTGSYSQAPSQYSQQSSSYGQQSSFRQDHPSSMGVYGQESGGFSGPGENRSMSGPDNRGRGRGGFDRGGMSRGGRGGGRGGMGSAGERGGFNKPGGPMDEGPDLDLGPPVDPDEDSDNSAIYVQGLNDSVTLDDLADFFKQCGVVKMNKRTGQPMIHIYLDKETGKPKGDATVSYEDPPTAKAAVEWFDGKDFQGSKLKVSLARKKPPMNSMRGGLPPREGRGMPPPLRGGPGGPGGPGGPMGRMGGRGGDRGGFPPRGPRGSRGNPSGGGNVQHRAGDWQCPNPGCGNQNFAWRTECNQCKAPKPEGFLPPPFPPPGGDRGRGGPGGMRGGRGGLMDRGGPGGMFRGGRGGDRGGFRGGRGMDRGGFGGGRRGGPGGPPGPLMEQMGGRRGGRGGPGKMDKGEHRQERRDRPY

Consider two molecules from publication PMC12900774.

No constants are given. Whether binding was seen depends on the method and setting. Binding seen in cells or lysates may run through a third protein. Some binding calls cover weakened binding; strength is not graded here.

B1: DGCR8 (protein, UniProt Q8WYQ5 1-773)
chain: METDESPSPLPCGPAGEAVMESRARPFQALPREQSPPPPLQTSSGAEVMDVGSGGDGQSELPAEDPFNFYGASLLSKGSFSKGRLLIDPNCSGHSPRTARHAPAVRKFSPDLKLLKDVKISVSFTESCRSKDRKVLYTGAERDVRAECGLLLSPVSGDVHACPFGGSVGDGVGIGGESADKKDEENELDQEKRVEYAVLDELEDFTDNLELDEEGAGGFTAKAIVQRDRVDEEALNFPYEDDFDNDVDALLEEGLCAPKKRRTEEKYGGDSDHPSDGETSVQPMMTKIKTVLKSRGRPPTEPLPDGWIMTFHNSGVPVYLHRESRVVTWSRPYFLGTGSIRKHDPPLSSIPCLHYKKMKDNEEREQSSDLTPSGDVSPVKPLSRSAELEFPLDEPDSMGADPGPPDEKDPLGAEAAPGALGQVKAKVEVCKDESVDLEEFRSYLEKRFDFEQVTVKKFRTWAERRQFNREMKRKQAESERPILPANQKLITLSVQDAPTKKEFVINPNGKSEVCILHEYMQRVLKVRPVYNFFECENPSEPFGASVTIDGVTYGSGTASSKKLAKNKAARATLEILIPDFVKQTSEEKPKDSEELEYFNHISIEDSRVYELTSKAGLLSPYQILHECLKRNHGMGDTSIKFEVVPGKNQKSEYVMACGKHTVRGWCKNKRVGKQLASQKILQLLHPHVKNWGSLLRMYGRESSKMVKQETSDKSVIELQQYAKKNKPNLHILSKLQEEMKRLAEEREETRKKPKMSIVASAQPGGEPLCTVDV
B1: the binding result is “binds”.

B2: DROSHA (protein, UniProt Q9NRR4 1-1374)
chain: MMQGNTCHRMSFHPGRGCPRGRGGHGARPSAPSFRPQNLRLLHPQQPPVQYQYEPPSAPSTTFSNSPAPNFLPPRPDFVPFPPPMPPSAQGPLPPCPIRPPFPNHQMRHPFPVPPCFPPMPPPMPCPNNPPVPGAPPGQGTFPFMMPPPSMPHPPPPPVMPQQVNYQYPPGYSHHNFPPPSFNSFQNNPSSFLPSANNSSSPHFRHLPPYPLPKAPSERRSPERLKHYDDHRHRDHSHGRGERHRSLDRRERGRSPDRRRQDSRYRSDYDRGRTPSRHRSYERSRERERERHRHRDNRRSPSLERSYKKEYKRSGRSYGLSVVPEPAGCTPELPGEIIKNTDSWAPPLEIVNHRSPSREKKRARWEEEKDRWSDNQSSGKDKNYTSIKEKEPEETMPDKNEEEEEELLKPVWIRCTHSENYYSSDPMDQVGDSTVVGTSRLRDLYDKFEEELGSRQEKAKAARPPWEPPKTKLDEDLESSSESECESDEDSTCSSSSDSEVFDVIAEIKRKKAHPDRLHDELWYNDPGQMNDGPLCKCSAKARRTGIRHSIYPGEEAIKPCRPMTNNAGRLFHYRITVSPPTNFLTDRPTVIEYDDHEYIFEGFSMFAHAPLTNIPLCKVIRFNIDYTIHFIEEMMPENFCVKGLELFSLFLFRDILELYDWNLKGPLFEDSPPCCPRFHFMPRFVRFLPDGGKEVLSMHQILLYLLRCSKALVPEEEIANMLQWEELEWQKYAEECKGMIVTNPGTKPSSVRIDQLDREQFNPDVITFPIIVHFGIRPAQLSYAGDPQYQKLWKSYVKLRHLLANSPKVKQTDKQKLAQREEALQKIRQKNTMRREVTVELSSQGFWKTGIRSDVCQHAMMLPVLTHHIRYHQCLMHLDKLIGYTFQDRCLLQLAMTHPSHHLNFGMNPDHARNSLSNCGIRQPKYGDRKVHHMHMRKKGINTLINIMSRLGQDDPTPSRINHNERLEFLGDAVVEFLTSVHLYYLFPSLEEGGLATYRTAIVQNQHLAMLAKKLELDRFMLYAHGPDLCRESDLRHAMANCFEALIGAVYLEGSLEEAKQLFGRLLFNDPDLREVWLNYPLHPLQLQEPNTDRQLIETSPVLQKLTEFEEAIGVIFTHVRLLARAFTLRTVGFNHLTLGHNQRMEFLGDSIMQLVATEYLFIHFPDHHEGHLTLLRSSLVNNRTQAKVAEELGMQEYAITNDKTKRPVALRTKTLADLLESFIAALYIDKDLEYVHTFMNVCFFPRLKEFILNQDWNDPKSQLQQCCLTLRTEGKEPDIPLYKTLQTVGPSHARTYTVAVYFKGERIGCGKGPSIQQAEMGAAMDALEKYNFPQMAHQKRFIERKYRQELKEMRWEREHQEREPDETEDIKK
With B2, the binding result was “binds”.
